Assay results published in publication PMC2845649.
No constants are given. Whether binding was seen depends on the method and setting. Binding seen in cells or lysates may run through a third protein.

Biological target: endogenous AKT (human (endogenous in HeLa))
Assay: co-IP; HeLa cells stably expressing PDK1-IFPC and IFPN-AKT1, lysed in NP40 buffer (Tris-HCl pH 8.0 50 mM, NaCl 150 mM, NP-40 1%); IP with anti-AKT1 or normal IgG, blots with anti-PDK1 and anti-AKT

- binding: no binding
B1: endogenous PDK1 (protein, UniProt O15530 1-556)
chain: MARTTSQLYDAVPIQSSVVLCSCPSPSMVRTQTESSTPPGIPGGSRQGPAMDGTAAEPRPGAGSLQHAQPPPQPRKKRPEDFKFGKILGEGSFSTVVLARELATSREYAIKILEKRHIIKENKVPYVTRERDVMSRLDHPFFVKLYFTFQDDEKLYFGLSYAKNGELLKYIRKIGSFDETCTRFYTAEIVSALEYLHGKGIIHRDLKPENILLNEDMHIQITDFGTAKVLSPESKQARANSFVGTAQYVSPELLTEKSACKSSDLWALGCIIYQLVAGLPPFRAGNEYLIFQKIIKLEYDFPEKFFPKARDLVEKLLVLDATKRLGCEEMEGYGPLKAHPFFESVTWENLHQQTPPKLTAYLPAMSEDDEDCYGNYDNLLSQFGCMQVSSSSSSHSLSASDTGLPQRSGSNIEQYIHDLDSNSFELDLQFSEDEKRLLLEKQAGGNPWHQFVENNLILKMGPVDKRKGLFARRRQLLLTEGPHLYYVDPVNKVLKGEIPWSQELRPEAKNFKTFFVHTPNRTYYLMDPSGNAHKWCRKIQEVWRQRYQSHPDAAVQ
